This data set has as its system patients with advanced solid tumors. As to the kind of experiment: Phase I study in the United States: 2,2′-dithiobis ethane sulfonate with paclitaxel and cisplatin, incidence of neurotoxicity. Format: in vivo, human. The following applies: 36 patients. The protocol: In the Phase I study in the United States, human patients in Stage I received the following treatment regimen every 3 weeks: a single dose of paclitaxel (175 mg/m^2) administered intravenously over 3 hours, pre-cisplatin saline hydration (1000 mL 0.9% NaCl) for 2 hours, followed immediately by a single dose of 2,2′-dithiobis ethane sulfonate (4.1, 8.2, 12.3, 18.4, 27.6 and 41.0 g/m^2, depending on cohort assignment) administered intravenously over 15 or 30 minutes, a single dose of cisplatin (75 mg/m^2) administered intravenously over 1 hour and subsequently post-cisplatin saline hydration (500 cc 0.9% NaCl) for 1 hour.
A total of 36 patients (22 patients in Stage I and 14 patients in Stage II) with advanced solid tumors have been enrolled and treated in this study at two clinical sites in the United States. A total of 138 treatment courses of BNP7787 with chemotherapy were given to 36 patients giving an average number of 3.8 treatment cycles per patient. A total of 13 patients (36.1%) completed at least five treatment cycles while 5 patients (13.9%) completed at least seven treatment cycles.
The number and percentage of patients who reported neurotoxicity in the Phase I studies compared with historical control data are summarized on the next page. Severity grades were measured according to NCI-CTC standards.

SMILES strings stand for the structures.

On to `O=S(=O)([O-])CCSSCCS(=O)(=O)[O-].[Na+].[Na+]` [2,2′-dithiobis ethane sulfonate], for which the “patients who completed at least five treatment cycles” value was 36.1% and the “patients who completed at least seven treatment cycles” value was found to be 13.9%.

The values are drawn from patent US8710095B2, “Drugs for prophylaxis or mitigation of taxane-induced neurotoxicity” (Bionumerik Pharmaceuticals, Inc., priority 2002, dated 2014).
